Results on 27 targets are retold here after the supplement of paper PMC12819154, “High-throughput peptide-centric local stability assay extends protein–ligand identification to membrane proteins, tissues and bacteria” (Nature Structural & Molecular Biology, 2025).

By UniProt entry, the sequences of proteins in these tests, tags left out. Where a name states a change or a piece, a line headed by the entry shows the natural chain unless it says otherwise.
UniProt Q9Y6J9: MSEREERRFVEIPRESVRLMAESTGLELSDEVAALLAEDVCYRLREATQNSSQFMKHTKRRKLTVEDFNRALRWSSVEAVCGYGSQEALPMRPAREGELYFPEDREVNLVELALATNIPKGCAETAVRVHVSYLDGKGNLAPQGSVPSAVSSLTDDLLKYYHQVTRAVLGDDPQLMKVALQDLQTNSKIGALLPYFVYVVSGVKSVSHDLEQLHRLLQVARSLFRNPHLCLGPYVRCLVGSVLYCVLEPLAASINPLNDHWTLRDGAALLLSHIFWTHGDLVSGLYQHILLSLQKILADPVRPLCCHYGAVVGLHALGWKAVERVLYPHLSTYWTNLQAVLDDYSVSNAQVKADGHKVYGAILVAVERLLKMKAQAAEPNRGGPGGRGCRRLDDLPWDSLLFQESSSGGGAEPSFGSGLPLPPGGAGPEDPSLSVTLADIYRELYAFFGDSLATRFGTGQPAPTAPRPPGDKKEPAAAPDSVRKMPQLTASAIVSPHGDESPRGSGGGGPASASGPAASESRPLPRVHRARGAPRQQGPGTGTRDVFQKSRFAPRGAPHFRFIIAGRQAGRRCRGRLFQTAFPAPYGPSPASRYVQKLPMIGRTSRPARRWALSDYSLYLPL
UniProt Q9Y4X5: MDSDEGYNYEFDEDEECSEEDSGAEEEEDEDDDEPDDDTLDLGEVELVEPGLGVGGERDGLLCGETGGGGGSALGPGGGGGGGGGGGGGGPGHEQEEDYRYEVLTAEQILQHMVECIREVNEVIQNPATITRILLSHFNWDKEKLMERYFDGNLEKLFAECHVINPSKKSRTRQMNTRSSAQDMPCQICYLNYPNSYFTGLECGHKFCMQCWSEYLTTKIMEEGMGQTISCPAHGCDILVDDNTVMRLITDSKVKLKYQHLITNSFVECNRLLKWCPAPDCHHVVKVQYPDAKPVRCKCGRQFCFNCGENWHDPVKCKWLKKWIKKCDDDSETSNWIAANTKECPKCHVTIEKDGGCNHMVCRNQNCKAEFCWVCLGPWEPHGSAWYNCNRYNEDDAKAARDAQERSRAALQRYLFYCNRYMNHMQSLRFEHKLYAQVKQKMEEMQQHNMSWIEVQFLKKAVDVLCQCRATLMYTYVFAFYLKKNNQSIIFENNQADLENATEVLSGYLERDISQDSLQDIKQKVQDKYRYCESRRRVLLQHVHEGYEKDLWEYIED
UniProt Q9Y4C2: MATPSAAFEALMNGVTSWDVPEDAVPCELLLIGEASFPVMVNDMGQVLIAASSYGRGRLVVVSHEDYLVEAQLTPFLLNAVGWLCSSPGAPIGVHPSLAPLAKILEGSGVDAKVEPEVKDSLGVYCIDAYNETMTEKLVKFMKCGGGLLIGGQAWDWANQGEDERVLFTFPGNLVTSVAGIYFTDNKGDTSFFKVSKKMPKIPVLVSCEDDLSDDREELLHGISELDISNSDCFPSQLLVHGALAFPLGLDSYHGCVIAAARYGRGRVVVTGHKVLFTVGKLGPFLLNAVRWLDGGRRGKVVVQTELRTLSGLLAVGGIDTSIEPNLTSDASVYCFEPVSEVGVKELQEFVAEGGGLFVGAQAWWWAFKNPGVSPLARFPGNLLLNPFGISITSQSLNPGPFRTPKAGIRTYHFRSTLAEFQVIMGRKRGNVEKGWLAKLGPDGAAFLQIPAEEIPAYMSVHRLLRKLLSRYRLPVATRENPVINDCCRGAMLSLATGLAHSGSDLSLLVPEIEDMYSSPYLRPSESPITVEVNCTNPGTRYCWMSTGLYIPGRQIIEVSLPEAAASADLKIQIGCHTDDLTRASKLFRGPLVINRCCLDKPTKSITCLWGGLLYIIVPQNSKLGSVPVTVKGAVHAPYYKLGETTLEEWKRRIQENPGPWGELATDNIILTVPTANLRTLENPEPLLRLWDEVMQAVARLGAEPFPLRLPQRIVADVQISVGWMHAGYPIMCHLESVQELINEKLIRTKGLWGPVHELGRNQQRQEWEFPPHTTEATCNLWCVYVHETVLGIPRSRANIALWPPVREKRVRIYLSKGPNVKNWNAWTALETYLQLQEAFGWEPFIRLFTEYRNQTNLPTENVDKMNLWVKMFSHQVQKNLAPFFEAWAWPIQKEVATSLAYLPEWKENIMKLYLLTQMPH
UniProt Q9Y657, whole entry: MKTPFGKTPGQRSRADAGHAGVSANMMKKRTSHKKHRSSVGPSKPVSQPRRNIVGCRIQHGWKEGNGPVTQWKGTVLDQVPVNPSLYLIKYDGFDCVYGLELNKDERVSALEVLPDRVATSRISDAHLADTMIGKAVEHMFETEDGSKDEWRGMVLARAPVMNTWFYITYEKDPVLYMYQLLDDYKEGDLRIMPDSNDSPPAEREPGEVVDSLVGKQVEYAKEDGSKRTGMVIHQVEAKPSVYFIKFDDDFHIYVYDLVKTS
UniProt Q9Y3I1: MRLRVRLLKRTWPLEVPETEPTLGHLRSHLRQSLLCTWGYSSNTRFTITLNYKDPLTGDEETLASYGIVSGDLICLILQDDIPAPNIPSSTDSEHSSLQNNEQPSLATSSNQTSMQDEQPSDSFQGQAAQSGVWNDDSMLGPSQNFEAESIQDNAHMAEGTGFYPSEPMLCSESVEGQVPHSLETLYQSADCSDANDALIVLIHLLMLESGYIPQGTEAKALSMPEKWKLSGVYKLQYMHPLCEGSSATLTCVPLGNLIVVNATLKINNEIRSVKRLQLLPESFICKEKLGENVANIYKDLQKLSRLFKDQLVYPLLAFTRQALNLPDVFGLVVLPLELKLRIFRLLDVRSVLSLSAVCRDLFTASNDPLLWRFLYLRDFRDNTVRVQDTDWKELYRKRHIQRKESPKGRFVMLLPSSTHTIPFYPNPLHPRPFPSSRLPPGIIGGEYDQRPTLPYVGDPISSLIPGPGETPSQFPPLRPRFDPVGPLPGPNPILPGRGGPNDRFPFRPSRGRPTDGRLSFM
UniProt Q9Y5K5, whole entry: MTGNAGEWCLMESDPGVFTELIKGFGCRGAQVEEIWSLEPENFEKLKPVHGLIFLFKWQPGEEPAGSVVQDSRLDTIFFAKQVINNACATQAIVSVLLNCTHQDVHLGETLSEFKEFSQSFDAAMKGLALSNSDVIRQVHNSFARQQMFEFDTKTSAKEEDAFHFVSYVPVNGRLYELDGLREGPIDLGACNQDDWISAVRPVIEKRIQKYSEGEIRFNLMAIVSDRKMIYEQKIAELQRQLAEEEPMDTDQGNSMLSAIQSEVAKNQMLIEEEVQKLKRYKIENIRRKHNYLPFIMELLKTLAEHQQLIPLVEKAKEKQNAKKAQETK
UniProt Q9Y6G9, whole entry: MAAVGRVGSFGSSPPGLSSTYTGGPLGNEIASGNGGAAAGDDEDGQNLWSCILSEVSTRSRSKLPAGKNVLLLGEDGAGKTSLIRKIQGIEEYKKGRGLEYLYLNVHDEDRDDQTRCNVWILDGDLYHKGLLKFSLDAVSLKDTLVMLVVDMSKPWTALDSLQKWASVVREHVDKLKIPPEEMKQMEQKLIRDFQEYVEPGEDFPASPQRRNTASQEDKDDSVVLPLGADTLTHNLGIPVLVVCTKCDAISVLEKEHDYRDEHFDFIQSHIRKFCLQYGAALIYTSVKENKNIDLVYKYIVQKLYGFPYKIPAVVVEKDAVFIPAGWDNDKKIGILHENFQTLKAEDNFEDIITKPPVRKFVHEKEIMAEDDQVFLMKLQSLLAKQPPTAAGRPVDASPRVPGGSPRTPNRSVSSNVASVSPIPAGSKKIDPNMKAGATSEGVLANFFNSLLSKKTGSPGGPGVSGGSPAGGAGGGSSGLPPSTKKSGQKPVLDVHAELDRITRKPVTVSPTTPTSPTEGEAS
UniProt Q9Y5X2: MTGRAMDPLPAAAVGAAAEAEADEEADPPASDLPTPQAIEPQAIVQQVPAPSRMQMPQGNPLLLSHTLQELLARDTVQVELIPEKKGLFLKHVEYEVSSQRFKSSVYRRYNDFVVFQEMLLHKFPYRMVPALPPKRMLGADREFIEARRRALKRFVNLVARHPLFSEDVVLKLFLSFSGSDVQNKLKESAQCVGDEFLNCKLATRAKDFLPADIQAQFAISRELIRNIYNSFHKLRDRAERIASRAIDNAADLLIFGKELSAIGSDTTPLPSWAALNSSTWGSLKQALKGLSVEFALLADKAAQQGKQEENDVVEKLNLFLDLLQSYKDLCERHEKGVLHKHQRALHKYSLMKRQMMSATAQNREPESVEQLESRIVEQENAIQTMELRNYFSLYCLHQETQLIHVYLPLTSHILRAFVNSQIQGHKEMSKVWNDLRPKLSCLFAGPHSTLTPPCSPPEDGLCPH
UniProt Q9Y6B7: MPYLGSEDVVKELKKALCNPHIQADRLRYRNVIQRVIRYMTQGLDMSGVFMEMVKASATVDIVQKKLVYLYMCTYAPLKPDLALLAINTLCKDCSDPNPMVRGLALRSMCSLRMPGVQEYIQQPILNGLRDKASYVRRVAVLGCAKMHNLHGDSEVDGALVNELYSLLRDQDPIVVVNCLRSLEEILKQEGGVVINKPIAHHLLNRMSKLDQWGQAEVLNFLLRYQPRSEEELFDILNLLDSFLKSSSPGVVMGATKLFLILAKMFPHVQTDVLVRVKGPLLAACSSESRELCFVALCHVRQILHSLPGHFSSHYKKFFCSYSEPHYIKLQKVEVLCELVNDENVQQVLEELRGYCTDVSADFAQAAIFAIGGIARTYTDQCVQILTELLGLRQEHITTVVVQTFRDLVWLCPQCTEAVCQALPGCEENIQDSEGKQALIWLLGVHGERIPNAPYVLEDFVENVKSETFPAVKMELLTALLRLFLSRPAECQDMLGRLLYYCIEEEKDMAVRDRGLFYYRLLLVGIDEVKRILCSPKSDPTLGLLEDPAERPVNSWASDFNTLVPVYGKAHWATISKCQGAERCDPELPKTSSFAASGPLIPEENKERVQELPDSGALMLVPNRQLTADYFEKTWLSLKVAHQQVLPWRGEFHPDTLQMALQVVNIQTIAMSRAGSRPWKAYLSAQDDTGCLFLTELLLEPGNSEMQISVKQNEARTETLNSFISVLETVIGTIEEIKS
UniProt Q9Y4P8: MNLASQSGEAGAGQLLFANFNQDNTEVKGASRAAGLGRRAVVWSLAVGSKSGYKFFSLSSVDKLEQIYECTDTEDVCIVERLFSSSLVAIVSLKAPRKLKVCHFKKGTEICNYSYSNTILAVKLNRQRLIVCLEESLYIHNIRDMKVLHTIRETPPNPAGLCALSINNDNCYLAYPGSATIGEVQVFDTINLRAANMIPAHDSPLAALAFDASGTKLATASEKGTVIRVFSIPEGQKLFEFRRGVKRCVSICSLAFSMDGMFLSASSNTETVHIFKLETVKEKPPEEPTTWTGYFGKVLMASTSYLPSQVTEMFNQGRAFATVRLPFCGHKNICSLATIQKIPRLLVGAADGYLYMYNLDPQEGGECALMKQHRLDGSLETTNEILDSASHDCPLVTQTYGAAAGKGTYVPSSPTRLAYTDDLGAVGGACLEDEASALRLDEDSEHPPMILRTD
UniProt Q9Y6X9: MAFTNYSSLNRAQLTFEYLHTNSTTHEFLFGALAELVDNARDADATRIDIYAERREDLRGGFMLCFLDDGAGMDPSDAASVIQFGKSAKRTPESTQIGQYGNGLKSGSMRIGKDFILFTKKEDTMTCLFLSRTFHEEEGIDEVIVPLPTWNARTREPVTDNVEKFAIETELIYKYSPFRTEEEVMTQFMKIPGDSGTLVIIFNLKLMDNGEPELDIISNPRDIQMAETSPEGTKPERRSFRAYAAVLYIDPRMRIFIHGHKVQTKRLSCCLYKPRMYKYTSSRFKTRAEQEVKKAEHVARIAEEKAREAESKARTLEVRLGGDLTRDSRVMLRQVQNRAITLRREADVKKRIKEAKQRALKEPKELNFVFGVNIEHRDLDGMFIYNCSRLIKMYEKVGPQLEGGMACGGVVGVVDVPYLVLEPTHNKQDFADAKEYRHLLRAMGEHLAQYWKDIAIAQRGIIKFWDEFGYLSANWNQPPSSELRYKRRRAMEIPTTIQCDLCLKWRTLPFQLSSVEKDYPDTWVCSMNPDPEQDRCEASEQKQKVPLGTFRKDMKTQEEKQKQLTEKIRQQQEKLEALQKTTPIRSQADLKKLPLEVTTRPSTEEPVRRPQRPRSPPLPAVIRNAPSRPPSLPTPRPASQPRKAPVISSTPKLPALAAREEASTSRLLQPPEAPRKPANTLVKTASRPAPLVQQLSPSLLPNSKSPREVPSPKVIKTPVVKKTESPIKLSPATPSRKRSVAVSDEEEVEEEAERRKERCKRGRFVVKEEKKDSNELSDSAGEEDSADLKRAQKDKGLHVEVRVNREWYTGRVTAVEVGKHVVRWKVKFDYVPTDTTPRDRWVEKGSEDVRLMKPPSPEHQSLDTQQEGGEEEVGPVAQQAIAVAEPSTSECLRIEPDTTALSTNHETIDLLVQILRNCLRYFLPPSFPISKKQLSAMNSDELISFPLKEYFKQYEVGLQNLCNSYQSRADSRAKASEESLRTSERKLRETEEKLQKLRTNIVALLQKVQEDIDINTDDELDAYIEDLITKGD

Compound in the experiment: CN[C@@H]1C[C@H]2O[C@@](C)([C@@H]1OC)n1c3ccccc3c3c4c(c5c6ccccc6n2c5c31)C(=O)NC4 [staurosporine]
Kind of experiment: log2 fold change of tryptic peptide abundance, ligand vs vehicle (limited proteolysis) (log2 ratio); higher = more trypsin-susceptible (destabilized). The note with it: ligand concentration: 20 uM; sample: K562 cleared lysate; digestion: 4 min, 22 C (HT-PELSA RT4min, Orbitrap Astral).

Some of the results follow. Small differences around the control level are noise.

As for “DDX49 (peptide sequence: QLILEGKDPDLEAKR, peptide start residue: 415) (UniProt Q9Y6V7)”, the log2 fold change is -0.134.

Take “TAF6L (peptide sequence: VYGAILVAVER, peptide start residue: 358) (UniProt Q9Y6J9)”: the log2 fold change was -0.425.

For the target “UniProt Q9Y6W6 (peptide sequence: ITVLDLISCR, peptide start residue: 210)”, the log2 fold change was -0.289.

As for “DMXL1 (peptide sequence: MFLSYCILHGSHGGGLASVR, peptide start residue: 2132) (UniProt Q9Y485)”, the log2 fold change is 0.863.

On to “F11R (peptide sequence: VIYSQPSAR, peptide start residue: 278) (UniProt Q9Y624)”, for which the log2 fold change is -0.547.

For the target “CSAD (peptide sequence: FFNQLFSGLDPHALAGR, peptide start residue: 89) (UniProt Q9Y600)”, the log2 fold change is -0.774.

For “UniProt Q9Y4E1 (peptide sequence: DSGTLQSQEAK, peptide start residue: 647)”, the log2 fold change was -0.163.

Consider “ARIH1 (peptide sequence: YFDGNLEK, peptide start residue: 149) (UniProt Q9Y4X5)”, for which the log2 fold change was found to be 0.116.

Take “RAD54B (peptide sequence: RSAAPSQLQGNSFK, peptide start residue: 3) (UniProt Q9Y620)”: the log2 fold change was -0.567.

Consider “TCAF1 (peptide sequence: GRVVVTGHK, peptide start residue: 266) (UniProt Q9Y4C2)”, for which the log2 fold change was determined as 0.353.

Turning to “SPIN1 (peptide sequence: VSALEVLPDR, peptide start residue: 108) (UniProt Q9Y657)”, the log2 fold change was 0.31.

Turning to “UniProt Q9Y448 (peptide sequence: LTETQGELKDLTQK, peptide start residue: 193)”, the log2 fold change is -0.301.

As to “FBXO7 (peptide sequence: TWPLEVPETEPTLGHLR, peptide start residue: 11) (UniProt Q9Y3I1)”, the log2 fold change was found to be 0.394.

In the case of “ZNF330 (peptide sequence: GKQPPCPKCGHETQETK, peptide start residue: 208) (UniProt Q9Y3S2)”, the log2 fold change was -0.154.

“UCHL5 (peptide sequence: GAQVEEIWSLEPENFEK, peptide start residue: 29) (UniProt Q9Y5K5)”: the log2 fold change was -0.808.

“DYNC1LI1 (peptide sequence: LPAGKNVLLLGEDGAGKTSLIR, peptide start residue: 64) (UniProt Q9Y6G9)”: the log2 fold change turned out to be 0.637.

Regarding “UniProt Q9Y3U8 (peptide sequence: REELSNVLAAMR, peptide start residue: 87)”, the log2 fold change was -0.117.

On to “WASF2 (peptide sequence: DVVGNDVATILSR, peptide start residue: 463) (UniProt Q9Y6W5)”, for which the log2 fold change was -0.345.

Take “PSAT1 (peptide sequence: ALELNMLSLK, peptide start residue: 324) (UniProt Q9Y617)”: the log2 fold change is -0.396.

“SNX8 (peptide sequence: LKESAQCVGDEFLNCK, peptide start residue: 186) (UniProt Q9Y5X2)”: the log2 fold change turned out to be 0.306.

For “AP4B1 (peptide sequence: TSSFAASGPLIPEENKER, peptide start residue: 591) (UniProt Q9Y6B7)”, the log2 fold change was -0.0823.

Regarding “USP15 (peptide sequence: MDPLTKPMQYK, peptide start residue: 483) (UniProt Q9Y4E8)”, the log2 fold change was found to be 0.317.

With “ALG5 (peptide sequence: HEEEKFFLNAK, peptide start residue: 40) (UniProt Q9Y673)”, the log2 fold change was -0.703.

Turning to “ASB1 (peptide sequence: IAATAGHGSCVDFLIR, peptide start residue: 84) (UniProt Q9Y576)”, the log2 fold change was -0.324.

Regarding “WIPI2 (peptide sequence: LFSSSLVAIVSLKAPR, peptide start residue: 82) (UniProt Q9Y4P8)”, the log2 fold change came to 0.637.

Turning to “MORC2 (peptide sequence: VPLGTFRK, peptide start residue: 545) (UniProt Q9Y6X9)”, the log2 fold change is -0.692.

For “ATP6V1D (peptide sequence: EREEFYR, peptide start residue: 195) (UniProt Q9Y5K8)”, the log2 fold change was found to be 0.327.
